Reference: paper PMC9360036
No constants are given. Whether binding was seen depends on the method and setting. In cells and extracts the contact can be indirect. A yes stands for co-enrichment or nearness to the bait. Other partners may have been found. A no says only that the protein was not detected with the bait.

The chains behind the UniProt entries cited, without tags or fusion partners. Where a name states a change or a piece, a line headed by the entry shows the natural chain unless it says otherwise. A line that says so, or that is headed by a name, gives the form on record, which may keep a tag or linker.
MAP4K4-BioID2-3xFLAG (O95819, form named): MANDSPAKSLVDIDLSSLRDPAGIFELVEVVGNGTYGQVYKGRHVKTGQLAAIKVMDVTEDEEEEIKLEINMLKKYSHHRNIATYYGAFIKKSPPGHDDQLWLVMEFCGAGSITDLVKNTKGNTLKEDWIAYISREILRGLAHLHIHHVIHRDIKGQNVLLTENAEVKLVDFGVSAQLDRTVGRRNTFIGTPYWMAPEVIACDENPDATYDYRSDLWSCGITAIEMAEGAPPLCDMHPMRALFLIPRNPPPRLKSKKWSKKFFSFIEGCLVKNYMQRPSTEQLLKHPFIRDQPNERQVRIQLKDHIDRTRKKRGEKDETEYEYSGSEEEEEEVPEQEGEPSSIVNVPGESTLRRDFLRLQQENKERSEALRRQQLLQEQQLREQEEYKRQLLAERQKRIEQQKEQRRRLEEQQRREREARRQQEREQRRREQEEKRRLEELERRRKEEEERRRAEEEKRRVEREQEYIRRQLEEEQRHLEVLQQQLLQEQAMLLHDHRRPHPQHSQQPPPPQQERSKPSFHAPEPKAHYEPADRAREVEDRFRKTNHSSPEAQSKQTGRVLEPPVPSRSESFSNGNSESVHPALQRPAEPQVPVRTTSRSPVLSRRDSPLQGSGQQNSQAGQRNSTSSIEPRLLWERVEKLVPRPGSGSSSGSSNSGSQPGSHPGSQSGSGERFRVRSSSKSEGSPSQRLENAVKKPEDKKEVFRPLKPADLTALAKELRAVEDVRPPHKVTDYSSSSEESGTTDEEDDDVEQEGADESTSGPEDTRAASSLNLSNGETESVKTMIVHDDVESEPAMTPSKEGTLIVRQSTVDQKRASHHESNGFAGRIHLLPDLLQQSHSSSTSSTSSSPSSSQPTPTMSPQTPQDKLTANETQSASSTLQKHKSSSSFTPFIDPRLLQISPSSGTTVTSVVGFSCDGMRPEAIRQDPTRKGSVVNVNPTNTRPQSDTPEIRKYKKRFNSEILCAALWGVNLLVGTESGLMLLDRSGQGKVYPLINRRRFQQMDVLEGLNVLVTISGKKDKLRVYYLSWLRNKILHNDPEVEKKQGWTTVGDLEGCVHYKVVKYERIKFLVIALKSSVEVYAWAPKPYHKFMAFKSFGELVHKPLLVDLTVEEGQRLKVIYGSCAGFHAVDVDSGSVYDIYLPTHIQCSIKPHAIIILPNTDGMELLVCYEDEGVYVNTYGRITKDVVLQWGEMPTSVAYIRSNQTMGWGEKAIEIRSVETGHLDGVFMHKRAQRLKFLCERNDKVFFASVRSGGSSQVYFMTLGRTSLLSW
UniProt P50552: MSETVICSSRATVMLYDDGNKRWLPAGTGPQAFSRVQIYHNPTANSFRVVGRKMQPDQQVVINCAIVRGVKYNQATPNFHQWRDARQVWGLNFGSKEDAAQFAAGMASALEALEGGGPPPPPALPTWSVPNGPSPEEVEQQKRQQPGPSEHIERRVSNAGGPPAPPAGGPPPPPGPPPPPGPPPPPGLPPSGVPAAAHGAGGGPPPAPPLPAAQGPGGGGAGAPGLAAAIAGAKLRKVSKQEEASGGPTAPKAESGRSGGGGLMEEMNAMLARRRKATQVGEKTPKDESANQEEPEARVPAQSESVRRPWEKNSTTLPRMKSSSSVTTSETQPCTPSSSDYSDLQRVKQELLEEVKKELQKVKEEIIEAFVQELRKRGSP

Molecular target: MAP4K4-BioID2-3xFLAG (human) (UniProt O95819)
Test: proximity labelling; BioID with N-BioID2-M4K4 or C-BioID2-M4K4, streptavidin pull-down and mass spectrometry; told in the discussion only; cells not told (HEK-293T or DAOY)

- binding: no binding
Substance: VASP (from UniProt P50552 1-380)
